Publication doi:10.1101/2021.07.30.454553 (bioRxiv, 2021)
Like-named read-outs stand apart in the source and are kept apart here. No constants are given. Whether binding was seen depends on the method and setting. Some binding calls cover weakened binding; strength is not graded here. Each block holds one molecule with its values, some of them ahead of it.

The chains behind the UniProt entries cited, without tags or fusion partners. Where a name states a change or a piece, a line headed by the entry shows the natural chain unless it says otherwise. Residues count along the entry.
UniProt P33176: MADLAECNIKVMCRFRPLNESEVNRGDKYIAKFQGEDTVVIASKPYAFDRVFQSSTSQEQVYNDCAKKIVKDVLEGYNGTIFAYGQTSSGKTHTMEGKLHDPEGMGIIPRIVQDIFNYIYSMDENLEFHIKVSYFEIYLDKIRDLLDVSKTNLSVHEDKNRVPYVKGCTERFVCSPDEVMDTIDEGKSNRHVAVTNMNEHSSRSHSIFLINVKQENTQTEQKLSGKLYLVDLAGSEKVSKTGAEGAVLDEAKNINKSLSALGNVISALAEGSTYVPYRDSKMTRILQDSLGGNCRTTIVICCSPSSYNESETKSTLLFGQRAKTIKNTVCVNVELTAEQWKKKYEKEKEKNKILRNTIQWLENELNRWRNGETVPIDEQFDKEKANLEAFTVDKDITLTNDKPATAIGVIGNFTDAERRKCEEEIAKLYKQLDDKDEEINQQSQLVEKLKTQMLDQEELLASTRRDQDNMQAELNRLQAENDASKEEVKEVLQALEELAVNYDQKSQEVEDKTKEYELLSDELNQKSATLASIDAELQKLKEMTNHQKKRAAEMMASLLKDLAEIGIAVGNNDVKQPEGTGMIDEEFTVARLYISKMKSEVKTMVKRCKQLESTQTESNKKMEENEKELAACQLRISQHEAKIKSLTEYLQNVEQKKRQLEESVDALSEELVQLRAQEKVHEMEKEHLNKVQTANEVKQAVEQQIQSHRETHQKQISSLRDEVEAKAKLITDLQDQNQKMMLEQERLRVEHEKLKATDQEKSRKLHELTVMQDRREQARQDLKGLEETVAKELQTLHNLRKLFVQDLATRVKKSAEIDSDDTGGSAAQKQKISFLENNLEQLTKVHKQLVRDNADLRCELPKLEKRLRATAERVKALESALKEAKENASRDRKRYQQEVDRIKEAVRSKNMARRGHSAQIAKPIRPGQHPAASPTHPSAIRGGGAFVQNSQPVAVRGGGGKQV
KIF5B^1-490: residues 1-490 of P33176
UniProt Q8IXI2, residues 1-592: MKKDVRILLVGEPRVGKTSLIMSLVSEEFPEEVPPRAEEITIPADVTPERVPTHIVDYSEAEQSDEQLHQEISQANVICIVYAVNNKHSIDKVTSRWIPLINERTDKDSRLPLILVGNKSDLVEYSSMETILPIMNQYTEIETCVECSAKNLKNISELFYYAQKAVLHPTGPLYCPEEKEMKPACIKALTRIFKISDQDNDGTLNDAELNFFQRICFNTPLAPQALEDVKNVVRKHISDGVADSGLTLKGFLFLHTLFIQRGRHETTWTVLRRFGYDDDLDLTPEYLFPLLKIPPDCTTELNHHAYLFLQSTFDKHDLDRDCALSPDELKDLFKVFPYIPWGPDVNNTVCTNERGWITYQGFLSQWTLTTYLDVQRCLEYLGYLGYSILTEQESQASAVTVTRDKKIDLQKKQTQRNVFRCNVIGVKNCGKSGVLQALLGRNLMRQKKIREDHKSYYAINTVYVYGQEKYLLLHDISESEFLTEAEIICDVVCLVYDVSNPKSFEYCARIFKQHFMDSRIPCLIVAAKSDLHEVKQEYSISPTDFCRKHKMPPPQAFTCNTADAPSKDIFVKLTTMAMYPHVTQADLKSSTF

Assays:
Experiment in all cases: co-IP
KIF5B^1-490 (human) = KIF5B^1-490 (human) (UniProt P33176)
[1] = target: T1, full-length TRAK2^1-914 (human) (UniProt O60296)
T1 sequence (chain, LD655 dye on the SNAP tag (imaging assays)): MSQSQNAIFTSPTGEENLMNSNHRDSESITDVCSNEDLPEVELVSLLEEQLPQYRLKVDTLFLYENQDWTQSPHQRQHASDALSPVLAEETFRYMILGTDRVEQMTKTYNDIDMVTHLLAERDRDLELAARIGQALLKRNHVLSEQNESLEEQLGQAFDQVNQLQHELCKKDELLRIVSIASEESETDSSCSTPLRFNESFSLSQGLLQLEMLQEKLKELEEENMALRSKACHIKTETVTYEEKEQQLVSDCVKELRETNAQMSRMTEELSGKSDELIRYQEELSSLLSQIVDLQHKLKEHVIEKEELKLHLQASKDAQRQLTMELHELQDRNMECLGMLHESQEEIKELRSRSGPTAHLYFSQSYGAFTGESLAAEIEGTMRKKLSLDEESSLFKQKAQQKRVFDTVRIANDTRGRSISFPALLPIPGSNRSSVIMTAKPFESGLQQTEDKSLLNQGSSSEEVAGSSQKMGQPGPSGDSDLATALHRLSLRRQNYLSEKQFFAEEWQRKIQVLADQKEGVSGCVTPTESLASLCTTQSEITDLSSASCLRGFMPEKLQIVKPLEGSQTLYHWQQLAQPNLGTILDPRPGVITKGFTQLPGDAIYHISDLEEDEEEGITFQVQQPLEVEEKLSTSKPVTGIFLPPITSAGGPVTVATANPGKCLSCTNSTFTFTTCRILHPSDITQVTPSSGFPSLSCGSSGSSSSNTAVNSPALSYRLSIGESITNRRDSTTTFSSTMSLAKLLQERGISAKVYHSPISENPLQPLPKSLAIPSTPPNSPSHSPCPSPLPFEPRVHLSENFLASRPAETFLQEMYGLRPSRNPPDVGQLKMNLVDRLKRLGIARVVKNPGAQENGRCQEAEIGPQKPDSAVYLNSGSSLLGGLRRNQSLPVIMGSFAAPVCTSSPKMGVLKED

[2] = target: full-length human kinesin-1 heavy chain (KIF5B) (human) (UniProt P33176)
[3] = target: full-length human kinesin-1 heavy chain (KIF5B) (human) (UniProt P33176); remark: listed apart in the source

- binding (KIF5B^1-490 (human)): no binding
- binding [1]: binds
- binding [2]: binds
Molecule: Miro1^1-592 (from UniProt Q8IXI2 1-592) (domain or fragment)

- binding [3]: no binding (condition: without MAP7)
B1: TRAK2^1-360 (domain or fragment, human, UniProt O60296 1-360, looked up)
chain: MSQSQNAIFTSPTGEENLMNSNHRDSESITDVCSNEDLPEVELVSLLEEQLPQYRLKVDTLFLYENQDWTQSPHQRQHASDALSPVLAEETFRYMILGTDRVEQMTKTYNDIDMVTHLLAERDRDLELAARIGQALLKRNHVLSEQNESLEEQLGQAFDQVNQLQHELCKKDELLRIVSIASEESETDSSCSTPLRFNESFSLSQGLLQLEMLQEKLKELEEENMALRSKACHIKTETVTYEEKEQQLVSDCVKELRETNAQMSRMTEELSGKSDELIRYQEELSSLLSQIVDLQHKLKEHVIEKEELKLHLQASKDAQRQLTMELHELQDRNMECLGMLHESQEEIKELRSRSGPTAHL
modifications: LD555 or LD655 dye on the SNAP tag (imaging assays)
